± gives the standard deviation of the averaged measurements. Most entries show no effect beyond the scatter of the controls.
Columns and labels:
Test in all cases: level (log10 ratio to DMSO vehicle control); higher = higher biomarker level / cell amount than vehicle control
Perfluoro-1-iodohexane = compound: FC(F)(F)C(F)(F)C(F)(F)C(F)(F)C(F)(F)C(F)(F)I [Perfluoro-1-iodohexane]; conditions: in DMSO
Experimental: (§1)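 BioMAP Diversity Plus panel of 12 human primary cell co-culture systems (3C, 4H, LPS, SAg, BT, BF4T, BE3C, CASM3C, HDF3CGF, KF3CT, MyoF, Mphg). Compounds were added 1 h before stimulation and left for 24 h (MyoF 48 h; BT 72 h for soluble read-outs or 6 d for IgG). Biomarkers were read by ELISA, cytotoxicity by SRB, PBMC viability and proliferation by Alamar Blue. Each well value was divided by the mean of 8 DMSO control wells on the same plate and log10 transformed; duplicate blinded samples were tested at 4 concentrations.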

[1] = compound: C=CC(=O)OCC(F)(F)C(F)(F)C(F)(F)COC(=O)C=C [1H,1H,5H,5H-Perfluoro-1,5-pentanediol diacrylate]; conditions: 2200 nM; in DMSO
Experimental: as §1

Hexafluoroamylene glycol = compound: OCC(F)(F)C(F)(F)C(F)(F)CO [Hexafluoroamylene glycol]; conditions: 2200 nM; in DMSO
Experimental: as §1

[2] = compound: O=C(O)C(F)(F)C(F)(F)C(F)(F)C(F)(F)C(F)(F)C(F)(F)C(F)(F)C(F)(F)C(F)(F)C(F)(F)C(F)(F)C(F)(F)C(F)(F)F [Perfluorotetradecanoic acid]; conditions: in DMSO
Experimental: as §1

[3] = compound: C=CC(=O)OCCC(F)(F)C(F)(F)C(F)(F)C(F)(F)F [2-(Perfluorobutyl)ethyl acrylate]; conditions: 2200 nM; in DMSO
Experimental: as §1

[4] = compound: FC(F)(F)C(F)(C(F)(F)F)C(F)(F)C(F)(F)CC1CO1 [3-(Perfluoro-3-methylbutyl)-1,2-propenoxide]; conditions: in DMSO
Experimental: as §1

[5] = compound: O=C(O)C=C(C(F)(F)F)C(F)(F)F [3,3-Bis(trifluoromethyl)-2-propenoic acid]; conditions: in DMSO
Experimental: as §1

[6] = compound: O=S(=O)(O)C(F)(F)C(F)(F)C(F)(F)C(F)(F)C(F)(F)C(F)(F)F [Perfluorohexanesulfonic acid]; conditions: 2200 nM; in DMSO
Experimental: as §1

[7] = compound: O=C(Cl)C(F)(F)C(F)(F)C(F)(F)C(=O)Cl [Hexafluoroglutaryl chloride]; conditions: 2200 nM; in DMSO
Experimental: as §1

[8] = compound: C=CC(=O)OCCC(F)(F)C(F)(F)C(F)(F)C(F)(F)C(F)(F)C(F)(F)C(F)(F)C(F)(F)F [8:2 Fluorotelomer acrylate]; conditions: 2200 nM; in DMSO
Experimental: as §1

[9] = compound: OCCCC(F)(F)C(F)(F)C(F)(F)C(F)(F)C(F)(F)C(F)(F)C(F)(F)F [7:3 Fluorotelomer alcohol]; conditions: 2200 nM; in DMSO
Experimental: as §1

[10] = compound: FC(F)(I)C(F)(F)C(F)(F)C(F)(F)C(F)(F)C(F)(F)I [1,6-Diiodoperfluorohexane]; conditions: 2200 nM; in DMSO
Experimental: as §1

[11] = compound: O=S(=O)(O)CCC(F)(F)C(F)(F)C(F)(F)C(F)(F)F [4:2 Fluorotelomer sulfonic acid]; conditions: 2200 nM; in DMSO
Experimental: as §1

Test System	level (log10) (Perfluoro-1-iodohexane; 2200 nM)	level (log10) (Perfluoro-1-iodohexane; 6700 nM)	level (log10) (Perfluoro-1-iodohexane; 20000 nM)	level (log10) (Perfluoro-1-iodohexane; 60000 nM)	level (log10) [1]	level (log10) (Hexafluoroamylene glycol)	level (log10) ([2]; 740 nM)	level (log10) ([2]; 2200 nM)	level (log10) [3]	level (log10) ([4]; 740 nM)	level (log10) ([4]; 2200 nM)	level (log10) ([5]; 2200 nM)	level (log10) ([5]; 6700 nM)	level (log10) ([5]; 20000 nM)	level (log10) ([5]; 60000 nM)	level (log10) [6]	level (log10) [7]	level (log10) [8]	level (log10) [9]	level (log10) [10]	level (log10) [11]
MyoF:Collagen I	-0.022 ± 0.011	-0.0295 ± 0.019	-0.062 ± 0.04	-0.246 ± 0.094	0.004 ± 0.0042	-0.0055 ± 0.033	0.023 ± 0.0042	0.0155 ± 0.011	-0.006 ± 0.05	-0.0015 ± 0.0078	-0.001 ± 0.0042	-0.0155 ± 0.016	-0.031 ± 0.0057	-0.046 ± 0.021	-0.055 ± 0.04	0.006 ± 0.045	-0.0075 ± 0.013	-0.0035 ± 0.005	0.003 ± 0.0099	-0.028 ± 0.025	0.009 ± 0.011
KF3CT:CXCL9/MIG	0 ± 0.0085	-0.002	-0.0125 ± 0.00071	0.0025 ± 0.012	-0.006 ± 0.0057	0.004 ± 0.0085	-0.001 ± 0.0028	0.0015 ± 0.0035	-0.014 ± 0.024	-0.004 ± 0.028	-0.0075 ± 0.0092	0.008 ± 0.0085	0.0015 ± 0.005	-0.003 ± 0.0085	0.006 ± 0.011	0.003 ± 0.014	0.0155 ± 0.00071	0.0045 ± 0.0035	-0.0015 ± 0.0064	-0.002 ± 0.0085	0.0075 ± 0.016
BF4T:MMP-1	0.008 ± 0.0014	0.0045 ± 0.005	0.0035 ± 0.0035	0.009 ± 0.011	0.0185 ± 0.0035	-0.0025 ± 0.013	0.006 ± 0.0071	-0.003 ± 0.0042	0.0055 ± 0.063	0.0045 ± 0.042	-0.0115 ± 0.052	0.014 ± 0.018	-0.006 ± 0.018	0 ± 0.0042	0.0125 ± 0.021	0.0135 ± 0.0064	-0.005 ± 0.0028	0.0165 ± 0.015	-0.0025 ± 0.0078	0.0085 ± 0.015	0.001 ± 0.021
BE3C:Keratin 8/18	-0.0215 ± 0.022	-0.007 ± 0.037	-0.0105 ± 0.0078	0.005 ± 0.024	-0.0065 ± 0.0021	-0.0025 ± 0.0064	-0.001 ± 0.023	0.0235 ± 0.012	-0.001 ± 0.04	-0.013 ± 0.0028	0.0055 ± 0.013	0.0075 ± 0.016	-0.001 ± 0.0014	-0.0025 ± 0.005	0.014 ± 0.031	-0.006 ± 0.017	0.007 ± 0.0014	0.0025 ± 0.03	0.0185 ± 0.019	-0.016 ± 0.054	-0.002
MyoF:Collagen IV	-0.0485 ± 0.035	-0.033 ± 0.027	-0.031 ± 0.028	0.193 ± 0.013	-0.017 ± 0.025	-0.0075 ± 0.033	0.006 ± 0.03	-0.0005 ± 0.012	0.0375 ± 0.067	0.028 ± 0.0057	0.0095 ± 0.0078	-0.0225 ± 0.013	-0.0215 ± 0.029	-0.055 ± 0.025	-0.0345 ± 0.028	-0.0135 ± 0.0078	-0.018 ± 0.055	-0.0135 ± 0.021	-0.0135 ± 0.054	0.0435 ± 0.028	0.0085 ± 0.019
KF3CT:IL-1alpha	-0.0025 ± 0.046	0.008 ± 0.017	0.005 ± 0.017	-0.014 ± 0.017	-0.038 ± 0.083	-0.018 ± 0.024	-0.035	-0.011 ± 0.023	-0.006 ± 0.038	0.0095 ± 0.053	-0.013 ± 0.042	-0.0065 ± 0.0064	-0.001 ± 0.0057	-0.016 ± 0.016	-0.0185 ± 0.032	0.019 ± 0.057	-0.0285 ± 0.005	-0.0035 ± 0.028	0.006 ± 0.0057	-0.0085 ± 0.025	-0.0245 ± 0.028
3C:CD106/VCAM-1	0.009 ± 0.0071	0.003 ± 0.024	0.0075 ± 0.018	0 ± 0.047	-0.032 ± 0.0042	0.0105 ± 0.0078	0.0065 ± 0.005	-0.003 ± 0.0085	-0.0235 ± 0.0064	-0.0145 ± 0.005	-0.0155 ± 0.0021	-0.0455 ± 0.0078	-0.0575 ± 0.03	-0.0805 ± 0.025	-0.157 ± 0.017	-0.03 ± 0.048	-0.0145 ± 0.033	-0.012 ± 0.0014	0 ± 0.0099	-0.0235 ± 0.0078	0.0075 ± 0.019
CASM3C:Proliferation	-0.0115 ± 0.0078	0.023 ± 0.0071	-0.02 ± 0.013	-0.021 ± 0.067	-0.127 ± 0.065	0.0025 ± 0.042	0.017 ± 0.014	-0.014 ± 0.054	0.009 ± 0.059	-0.0215 ± 0.05	0.022 ± 0.0028	-0.002 ± 0.027	-0.0475 ± 0.0035	-0.0555 ± 0.015	-0.177 ± 0.06	0.006 ± 0.018	-0.0085 ± 0.013	0.0035 ± 0.0092	0.016 ± 0.025	-0.0005 ± 0.018	0.018
3C:CD142/Tissue Factor	-0.001 ± 0.027	0.0025 ± 0.032	0.0005 ± 0.013	0.0185 ± 0.022	-0.0595 ± 0.063	-0.0175 ± 0.057	0.0415 ± 0.046	0.0315 ± 0.061	-0.002 ± 0.05	0.0115 ± 0.015	0.001 ± 0.017	0.0565 ± 0.036	0.0445 ± 0.018	-0.022 ± 0.037	-0.138 ± 0.052	0.006 ± 0.0057	-0.0215 ± 0.037	0.0205 ± 0.029	-0.0205 ± 0.0021	-0.005 ± 0.05	0.005 ± 0.02
HDF3CGF:CD106/VCAM-1	-0.0545 ± 0.04	-0.027 ± 0.024	-0.032 ± 0.014	-0.405 ± 0.44	-0.256 ± 0.087	0.0165 ± 0.11	-0.027 ± 0.05	0.0015 ± 0.0078	-0.0305 ± 0.0035	0.0095 ± 0.012	0.0075 ± 0.021	-0.0375 ± 0.03	-0.0485 ± 0.021	-0.0795 ± 0.005	-0.17 ± 0.013	-0.0215 ± 0.0035	-0.001 ± 0.016	-0.012 ± 0.027	-0.062 ± 0.058	-0.069 ± 0.011	0.019 ± 0.037
KF3CT:CXCL10/IP-10	-0.001 ± 0.0071	0.005 ± 0.0014	0.001 ± 0.0028	0.0065 ± 0.0092	-0.002 ± 0.0099	-0.0045 ± 0.0092	0.0005 ± 0.0064	-0.005 ± 0.0014	-0.0055 ± 0.0021	-0.0065 ± 0.015	-0.0075 ± 0.0064	-0.0155 ± 0.00071	-0.01 ± 0.013	-0.027 ± 0.0014	-0.0225 ± 0.019	-0.0055 ± 0.0078	-0.0055 ± 0.00071	-0.0075 ± 0.012	-0.0005 ± 0.0064	-0.004 ± 0.017	0.002 ± 0.0014
BF4T:MMP-3	0.001 ± 0.0057	0.004 ± 0.0057	0.017	0.0635 ± 0.035	0.0435 ± 0.028	0.014 ± 0.064	0.0475 ± 0.042	0.025 ± 0.0071	0.0045 ± 0.046	0.004 ± 0.028	0.0035 ± 0.012	0.003 ± 0.028	-0.0165 ± 0.00071	-0.0105 ± 0.0064	0.0205 ± 0.037	0.0135 ± 0.05	0.004 ± 0.021	-0.0035 ± 0.046	-0.008 ± 0.0042	0.004 ± 0.014	0.009 ± 0.027

Two entries picked at random from the list so far, as already listed:
Test System	level (log10) (Perfluoro-1-iodohexane; 2200 nM)	level (log10) (Perfluoro-1-iodohexane; 6700 nM)	level (log10) (Perfluoro-1-iodohexane; 20000 nM)	level (log10) (Perfluoro-1-iodohexane; 60000 nM)	level (log10) [1]	level (log10) (Hexafluoroamylene glycol)	level (log10) ([2]; 740 nM)	level (log10) ([2]; 2200 nM)	level (log10) [3]	level (log10) ([4]; 740 nM)	level (log10) ([4]; 2200 nM)	level (log10) ([5]; 2200 nM)	level (log10) ([5]; 6700 nM)	level (log10) ([5]; 20000 nM)	level (log10) ([5]; 60000 nM)	level (log10) [6]	level (log10) [7]	level (log10) [8]	level (log10) [9]	level (log10) [10]	level (log10) [11]
3C:CD142/Tissue Factor	-0.001 ± 0.027	0.0025 ± 0.032	0.0005 ± 0.013	0.0185 ± 0.022	-0.0595 ± 0.063	-0.0175 ± 0.057	0.0415 ± 0.046	0.0315 ± 0.061	-0.002 ± 0.05	0.0115 ± 0.015	0.001 ± 0.017	0.0565 ± 0.036	0.0445 ± 0.018	-0.022 ± 0.037	-0.138 ± 0.052	0.006 ± 0.0057	-0.0215 ± 0.037	0.0205 ± 0.029	-0.0205 ± 0.0021	-0.005 ± 0.05	0.005 ± 0.02
BE3C:Keratin 8/18	-0.0215 ± 0.022	-0.007 ± 0.037	-0.0105 ± 0.0078	0.005 ± 0.024	-0.0065 ± 0.0021	-0.0025 ± 0.0064	-0.001 ± 0.023	0.0235 ± 0.012	-0.001 ± 0.04	-0.013 ± 0.0028	0.0055 ± 0.013	0.0075 ± 0.016	-0.001 ± 0.0014	-0.0025 ± 0.005	0.014 ± 0.031	-0.006 ± 0.017	0.007 ± 0.0014	0.0025 ± 0.03	0.0185 ± 0.019	-0.016 ± 0.054	-0.002

From the supplement of paper PMC10331698
